Measurements published in article PMC12700540.
Results are given in words; binding and its absence hold for the method and conditions named. Binding seen in cells or lysates may run through a third protein. Some binding calls cover weakened binding; strength is not graded here.

Amino acid sequences for entries named in this document (tags omitted).
UniProt P70168: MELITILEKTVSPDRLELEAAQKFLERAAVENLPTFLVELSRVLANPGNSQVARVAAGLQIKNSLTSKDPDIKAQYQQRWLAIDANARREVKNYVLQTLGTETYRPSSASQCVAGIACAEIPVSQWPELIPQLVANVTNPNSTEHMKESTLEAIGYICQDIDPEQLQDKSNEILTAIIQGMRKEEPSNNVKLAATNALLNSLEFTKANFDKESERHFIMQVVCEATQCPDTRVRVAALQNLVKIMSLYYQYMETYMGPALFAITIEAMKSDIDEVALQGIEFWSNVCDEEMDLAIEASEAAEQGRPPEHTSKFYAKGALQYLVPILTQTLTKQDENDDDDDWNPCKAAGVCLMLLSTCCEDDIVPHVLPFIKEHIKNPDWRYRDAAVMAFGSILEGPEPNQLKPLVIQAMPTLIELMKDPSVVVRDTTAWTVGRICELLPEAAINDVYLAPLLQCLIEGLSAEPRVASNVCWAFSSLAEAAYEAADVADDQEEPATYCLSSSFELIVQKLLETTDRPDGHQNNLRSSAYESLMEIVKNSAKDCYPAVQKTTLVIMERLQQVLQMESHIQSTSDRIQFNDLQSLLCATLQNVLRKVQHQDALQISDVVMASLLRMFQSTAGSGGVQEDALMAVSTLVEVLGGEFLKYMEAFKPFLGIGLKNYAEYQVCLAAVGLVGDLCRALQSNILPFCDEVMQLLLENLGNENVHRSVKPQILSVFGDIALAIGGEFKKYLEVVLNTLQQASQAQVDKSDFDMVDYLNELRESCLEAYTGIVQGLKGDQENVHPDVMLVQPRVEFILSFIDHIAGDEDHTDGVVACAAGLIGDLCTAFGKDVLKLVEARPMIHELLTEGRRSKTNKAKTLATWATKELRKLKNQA

Columns and labels:
[1] = target: T1, S100a9 lactylated at lysine 26 (S100a9K26la) (mouse (endogenous in neutrophils)) (UniProt P31725); experiment: co-IP; co-IP analysis of S100a9K26la and importin β1 in neutrophils
T1 sequence (chain, lactyl-lysine at 26 (K26la)): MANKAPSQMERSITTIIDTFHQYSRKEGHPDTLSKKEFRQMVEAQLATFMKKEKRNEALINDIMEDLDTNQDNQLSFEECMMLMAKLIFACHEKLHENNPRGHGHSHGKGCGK

[2] = target: T1, S100a9 lactylated at lysine 26 (S100a9K26la) (mouse (endogenous in neutrophils)); experiment: co-IP; reciprocal IP with anti-S100a9K26la or anti-DLAT antibody from BM neutrophils following MI/R; also BM neutrophils treated with doses of ALA, IP with anti-DLAT (ALA inhibited the binding)
[3] = target: T2, dihydrolipoyllysine-residue acetyltransferase (DLAT) (mouse (endogenous in BM neutrophils)) (UniProt Q8BMF4); experiment: as above
T2 sequence: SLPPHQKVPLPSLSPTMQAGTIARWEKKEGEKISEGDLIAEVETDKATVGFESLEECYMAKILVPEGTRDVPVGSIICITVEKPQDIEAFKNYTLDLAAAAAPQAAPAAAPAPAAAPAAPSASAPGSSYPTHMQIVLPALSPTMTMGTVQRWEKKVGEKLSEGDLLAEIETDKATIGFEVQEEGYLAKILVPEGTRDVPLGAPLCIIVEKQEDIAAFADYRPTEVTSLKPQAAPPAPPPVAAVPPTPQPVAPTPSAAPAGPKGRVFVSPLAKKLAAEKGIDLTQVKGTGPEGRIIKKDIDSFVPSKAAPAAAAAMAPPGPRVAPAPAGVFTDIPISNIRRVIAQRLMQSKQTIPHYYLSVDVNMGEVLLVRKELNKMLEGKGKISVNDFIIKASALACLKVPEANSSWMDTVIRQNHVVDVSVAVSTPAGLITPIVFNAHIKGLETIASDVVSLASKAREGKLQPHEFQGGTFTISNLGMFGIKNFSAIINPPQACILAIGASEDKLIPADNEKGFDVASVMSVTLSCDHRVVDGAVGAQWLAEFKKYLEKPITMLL

importin β1 (from UniProt P70168 1-876)
binding [1]: binds

B1: dihydrolipoyllysine-residue acetyltransferase (DLAT) (enzyme, UniProt Q8BMF4 86-642)
chain: T2 sequence
binding [2]: binds

B2: S100a9 lactylated at lysine 26 (S100a9K26la) (protein, UniProt P31725 1-113)
chain: T1 sequence (chain, lactyl-lysine at 26 (K26la))
modifications: lactyl-lysine at 26 (K26la)
binding [3]: binds
